Results taken from the supplement of paper PMC10849652.
Some of the results follow.

Sequences of proteins named here, by UniProt entry; tags and fusion partners are left off. A change or cut given only in a name is not applied to a line headed by its entry.
UniProt P48729: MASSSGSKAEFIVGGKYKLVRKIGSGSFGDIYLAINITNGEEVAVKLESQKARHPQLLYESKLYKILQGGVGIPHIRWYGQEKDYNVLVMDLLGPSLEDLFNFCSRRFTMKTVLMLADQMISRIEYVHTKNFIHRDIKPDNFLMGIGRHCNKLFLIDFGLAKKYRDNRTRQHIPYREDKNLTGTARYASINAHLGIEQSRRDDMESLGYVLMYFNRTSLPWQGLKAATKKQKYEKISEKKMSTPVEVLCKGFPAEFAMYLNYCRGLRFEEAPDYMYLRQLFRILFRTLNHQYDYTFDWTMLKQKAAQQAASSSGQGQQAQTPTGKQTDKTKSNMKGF
UniProt O95825: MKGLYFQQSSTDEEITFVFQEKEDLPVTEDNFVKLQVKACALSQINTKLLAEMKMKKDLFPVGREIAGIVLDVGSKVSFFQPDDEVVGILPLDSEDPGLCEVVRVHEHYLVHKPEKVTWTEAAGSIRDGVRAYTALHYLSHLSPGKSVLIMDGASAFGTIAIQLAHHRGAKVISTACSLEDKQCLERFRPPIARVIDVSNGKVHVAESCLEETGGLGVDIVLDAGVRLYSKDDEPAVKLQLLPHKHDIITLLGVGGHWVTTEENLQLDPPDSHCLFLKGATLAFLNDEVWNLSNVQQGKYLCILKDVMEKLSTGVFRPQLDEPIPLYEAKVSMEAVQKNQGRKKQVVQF
UniProt Q7Z7A3: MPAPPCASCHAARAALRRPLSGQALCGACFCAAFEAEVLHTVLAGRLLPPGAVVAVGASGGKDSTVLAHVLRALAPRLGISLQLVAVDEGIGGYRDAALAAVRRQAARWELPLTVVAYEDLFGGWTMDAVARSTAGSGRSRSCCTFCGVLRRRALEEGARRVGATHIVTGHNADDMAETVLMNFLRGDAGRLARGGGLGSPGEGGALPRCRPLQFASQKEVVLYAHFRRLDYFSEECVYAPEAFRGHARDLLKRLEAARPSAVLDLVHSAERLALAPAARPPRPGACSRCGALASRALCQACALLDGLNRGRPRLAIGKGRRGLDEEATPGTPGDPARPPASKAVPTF
UniProt O75534: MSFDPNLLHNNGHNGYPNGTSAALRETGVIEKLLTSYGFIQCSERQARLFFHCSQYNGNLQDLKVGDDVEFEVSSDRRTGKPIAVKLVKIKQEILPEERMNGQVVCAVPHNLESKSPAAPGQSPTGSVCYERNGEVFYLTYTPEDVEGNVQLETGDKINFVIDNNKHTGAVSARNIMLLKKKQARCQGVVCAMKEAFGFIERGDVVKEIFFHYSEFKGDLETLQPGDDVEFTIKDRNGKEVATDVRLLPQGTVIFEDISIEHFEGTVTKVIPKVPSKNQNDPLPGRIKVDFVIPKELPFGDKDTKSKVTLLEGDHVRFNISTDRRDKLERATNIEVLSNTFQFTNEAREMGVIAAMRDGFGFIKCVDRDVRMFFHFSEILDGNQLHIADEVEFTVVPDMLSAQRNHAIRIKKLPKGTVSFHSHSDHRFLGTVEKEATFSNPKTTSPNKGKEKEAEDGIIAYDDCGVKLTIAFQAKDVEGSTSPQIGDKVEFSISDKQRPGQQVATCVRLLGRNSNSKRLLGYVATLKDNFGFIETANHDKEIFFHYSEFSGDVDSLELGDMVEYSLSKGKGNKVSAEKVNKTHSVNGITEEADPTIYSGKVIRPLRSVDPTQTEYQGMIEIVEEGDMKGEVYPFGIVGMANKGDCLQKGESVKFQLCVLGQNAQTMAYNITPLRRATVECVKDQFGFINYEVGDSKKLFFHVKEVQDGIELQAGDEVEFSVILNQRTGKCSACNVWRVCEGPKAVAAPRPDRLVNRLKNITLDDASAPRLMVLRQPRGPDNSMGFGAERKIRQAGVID
UniProt Q08257: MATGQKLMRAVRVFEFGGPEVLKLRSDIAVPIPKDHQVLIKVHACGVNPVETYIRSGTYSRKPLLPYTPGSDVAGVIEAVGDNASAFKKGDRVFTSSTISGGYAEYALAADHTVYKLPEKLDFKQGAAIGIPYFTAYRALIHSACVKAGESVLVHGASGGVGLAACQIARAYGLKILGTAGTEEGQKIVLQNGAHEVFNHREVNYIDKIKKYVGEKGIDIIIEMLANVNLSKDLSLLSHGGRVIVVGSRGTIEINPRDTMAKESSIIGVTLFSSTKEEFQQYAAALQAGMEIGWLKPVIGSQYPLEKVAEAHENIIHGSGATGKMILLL
UniProt P35222, whole entry, looked up: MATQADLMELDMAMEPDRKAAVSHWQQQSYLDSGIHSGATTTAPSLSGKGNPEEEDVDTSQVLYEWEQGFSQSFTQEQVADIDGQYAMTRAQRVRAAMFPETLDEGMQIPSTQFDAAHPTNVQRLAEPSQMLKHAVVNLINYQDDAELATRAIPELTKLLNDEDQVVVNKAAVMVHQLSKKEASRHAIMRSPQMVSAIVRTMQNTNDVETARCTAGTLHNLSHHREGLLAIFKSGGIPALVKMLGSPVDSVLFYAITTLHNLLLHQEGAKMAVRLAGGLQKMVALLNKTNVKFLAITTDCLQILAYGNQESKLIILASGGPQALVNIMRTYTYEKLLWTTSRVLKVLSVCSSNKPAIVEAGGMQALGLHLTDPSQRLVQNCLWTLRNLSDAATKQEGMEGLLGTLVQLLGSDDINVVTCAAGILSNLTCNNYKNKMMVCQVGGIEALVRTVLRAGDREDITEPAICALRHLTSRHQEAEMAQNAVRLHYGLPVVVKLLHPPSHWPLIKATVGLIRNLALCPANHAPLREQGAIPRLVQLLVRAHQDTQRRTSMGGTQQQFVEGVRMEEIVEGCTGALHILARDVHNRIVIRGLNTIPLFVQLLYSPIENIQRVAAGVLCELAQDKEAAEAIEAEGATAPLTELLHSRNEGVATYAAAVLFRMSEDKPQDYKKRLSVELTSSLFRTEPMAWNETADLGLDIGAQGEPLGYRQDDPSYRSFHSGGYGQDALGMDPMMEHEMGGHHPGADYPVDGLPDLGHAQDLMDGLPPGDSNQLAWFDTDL
UniProt P49674: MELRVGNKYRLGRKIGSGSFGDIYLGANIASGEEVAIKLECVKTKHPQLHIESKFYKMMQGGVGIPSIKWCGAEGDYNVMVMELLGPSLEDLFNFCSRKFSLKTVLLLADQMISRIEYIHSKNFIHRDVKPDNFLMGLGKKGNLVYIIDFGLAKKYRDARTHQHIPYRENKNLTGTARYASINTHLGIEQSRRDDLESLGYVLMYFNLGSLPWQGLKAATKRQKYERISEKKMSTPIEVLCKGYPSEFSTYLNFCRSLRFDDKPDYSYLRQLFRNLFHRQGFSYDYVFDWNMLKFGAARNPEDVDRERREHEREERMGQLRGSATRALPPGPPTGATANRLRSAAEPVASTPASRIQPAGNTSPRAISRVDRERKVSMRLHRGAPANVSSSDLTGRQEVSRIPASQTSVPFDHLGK
UniProt P33240: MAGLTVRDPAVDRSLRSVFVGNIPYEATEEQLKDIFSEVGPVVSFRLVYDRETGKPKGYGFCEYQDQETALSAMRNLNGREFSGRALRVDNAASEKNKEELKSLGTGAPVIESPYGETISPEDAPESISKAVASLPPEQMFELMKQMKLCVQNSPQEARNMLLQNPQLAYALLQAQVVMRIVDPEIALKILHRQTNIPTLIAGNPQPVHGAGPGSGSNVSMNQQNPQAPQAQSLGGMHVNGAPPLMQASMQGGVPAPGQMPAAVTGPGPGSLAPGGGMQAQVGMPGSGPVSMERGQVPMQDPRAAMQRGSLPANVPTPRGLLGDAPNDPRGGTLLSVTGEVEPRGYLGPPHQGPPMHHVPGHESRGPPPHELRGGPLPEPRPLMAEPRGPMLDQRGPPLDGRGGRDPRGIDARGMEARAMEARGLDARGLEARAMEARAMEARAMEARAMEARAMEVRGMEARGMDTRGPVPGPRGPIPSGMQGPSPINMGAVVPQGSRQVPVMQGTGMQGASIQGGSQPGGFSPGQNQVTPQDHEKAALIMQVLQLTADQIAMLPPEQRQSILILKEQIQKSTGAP
UniProt Q05048: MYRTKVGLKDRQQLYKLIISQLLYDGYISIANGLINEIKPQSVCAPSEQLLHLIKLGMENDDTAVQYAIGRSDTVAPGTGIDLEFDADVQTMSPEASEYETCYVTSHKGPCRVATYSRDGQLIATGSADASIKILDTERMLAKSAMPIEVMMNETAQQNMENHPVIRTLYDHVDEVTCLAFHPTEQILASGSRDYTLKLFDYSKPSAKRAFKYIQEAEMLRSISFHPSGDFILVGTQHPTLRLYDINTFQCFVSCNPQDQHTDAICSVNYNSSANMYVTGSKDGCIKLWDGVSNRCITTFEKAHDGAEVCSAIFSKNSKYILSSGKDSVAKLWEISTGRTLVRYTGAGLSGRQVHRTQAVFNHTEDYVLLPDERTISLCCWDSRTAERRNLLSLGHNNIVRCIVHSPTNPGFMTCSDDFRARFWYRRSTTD
UniProt Q9P021, whole entry, looked up: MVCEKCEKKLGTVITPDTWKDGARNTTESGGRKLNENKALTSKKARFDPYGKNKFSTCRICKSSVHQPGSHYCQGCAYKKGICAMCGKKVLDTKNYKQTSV
UniProt P09668: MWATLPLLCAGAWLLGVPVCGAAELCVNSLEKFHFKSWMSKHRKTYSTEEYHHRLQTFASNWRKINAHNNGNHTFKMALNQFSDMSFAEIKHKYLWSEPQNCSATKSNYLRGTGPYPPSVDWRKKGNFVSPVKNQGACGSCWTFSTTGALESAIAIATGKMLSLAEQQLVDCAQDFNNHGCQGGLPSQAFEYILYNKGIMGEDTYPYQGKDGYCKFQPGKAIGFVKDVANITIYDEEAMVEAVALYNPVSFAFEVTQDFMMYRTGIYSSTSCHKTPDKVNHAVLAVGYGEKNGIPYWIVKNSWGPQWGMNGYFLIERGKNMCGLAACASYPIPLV
UniProt Q7L576: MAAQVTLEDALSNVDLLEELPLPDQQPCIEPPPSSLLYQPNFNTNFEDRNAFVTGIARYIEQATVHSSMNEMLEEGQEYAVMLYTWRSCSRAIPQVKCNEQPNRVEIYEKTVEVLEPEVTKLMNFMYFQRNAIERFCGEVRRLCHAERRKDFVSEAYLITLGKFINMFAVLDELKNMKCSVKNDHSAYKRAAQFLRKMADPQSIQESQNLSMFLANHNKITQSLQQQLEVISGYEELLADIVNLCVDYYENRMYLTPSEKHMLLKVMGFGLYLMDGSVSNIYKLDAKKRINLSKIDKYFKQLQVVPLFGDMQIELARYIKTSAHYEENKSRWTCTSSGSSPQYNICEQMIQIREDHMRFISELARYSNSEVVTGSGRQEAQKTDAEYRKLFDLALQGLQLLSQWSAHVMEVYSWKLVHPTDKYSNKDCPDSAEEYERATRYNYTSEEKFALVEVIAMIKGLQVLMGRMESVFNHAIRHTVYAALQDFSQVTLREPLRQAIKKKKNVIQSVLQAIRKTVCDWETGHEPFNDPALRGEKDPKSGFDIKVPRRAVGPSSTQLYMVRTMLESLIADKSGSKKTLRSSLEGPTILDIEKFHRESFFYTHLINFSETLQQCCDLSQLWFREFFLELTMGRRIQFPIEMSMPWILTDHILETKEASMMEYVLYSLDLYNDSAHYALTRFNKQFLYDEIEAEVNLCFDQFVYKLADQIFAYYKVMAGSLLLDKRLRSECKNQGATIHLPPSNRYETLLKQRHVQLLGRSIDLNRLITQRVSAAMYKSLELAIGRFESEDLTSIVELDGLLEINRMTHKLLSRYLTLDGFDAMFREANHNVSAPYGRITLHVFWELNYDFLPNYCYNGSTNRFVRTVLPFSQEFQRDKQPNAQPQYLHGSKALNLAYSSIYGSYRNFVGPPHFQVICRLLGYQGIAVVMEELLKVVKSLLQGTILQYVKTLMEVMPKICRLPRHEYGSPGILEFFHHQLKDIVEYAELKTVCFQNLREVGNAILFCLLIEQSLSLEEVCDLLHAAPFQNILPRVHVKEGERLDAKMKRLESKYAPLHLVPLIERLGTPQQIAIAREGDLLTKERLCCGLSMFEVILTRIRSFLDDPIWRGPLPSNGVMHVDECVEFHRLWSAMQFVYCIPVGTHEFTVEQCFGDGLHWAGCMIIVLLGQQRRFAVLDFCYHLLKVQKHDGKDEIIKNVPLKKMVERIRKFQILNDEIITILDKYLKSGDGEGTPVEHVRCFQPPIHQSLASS
UniProt Q9UBG3: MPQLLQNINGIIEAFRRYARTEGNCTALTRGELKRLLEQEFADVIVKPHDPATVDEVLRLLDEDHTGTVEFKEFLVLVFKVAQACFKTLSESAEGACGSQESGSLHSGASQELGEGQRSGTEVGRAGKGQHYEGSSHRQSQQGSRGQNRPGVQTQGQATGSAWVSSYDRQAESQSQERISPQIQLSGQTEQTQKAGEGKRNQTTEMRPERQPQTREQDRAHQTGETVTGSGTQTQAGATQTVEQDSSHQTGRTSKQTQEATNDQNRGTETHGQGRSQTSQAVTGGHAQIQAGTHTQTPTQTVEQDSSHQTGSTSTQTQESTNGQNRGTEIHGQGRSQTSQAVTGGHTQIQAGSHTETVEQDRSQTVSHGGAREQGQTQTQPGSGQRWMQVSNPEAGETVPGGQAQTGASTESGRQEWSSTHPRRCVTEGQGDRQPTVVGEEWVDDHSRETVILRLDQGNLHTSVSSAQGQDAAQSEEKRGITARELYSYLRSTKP

Assays:
Assay in all cases: log2 fold change, soluble protein after heating vs DMSO (PISA); higher = thermal stabilisation; K562 lysate, 10 uM; active = over 0.2 and 3.5 SD of the protein, either way, in both replicates (recomputed)
vemurafenib = compound: CCCS(=O)(=O)Nc1ccc(F)c(C(=O)c2c[nH]c3ncc(-c4ccc(Cl)cc4)cc23)c1F [vemurafenib]
How it was run: (§1)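 To prepare the extract, K562 pellets were dounce-homogenised in PBS pH 7.4 with 1 mM MgCl2, giving crude material at 1 mg/mL protein. This was treated with 10 μM compound for 30 min, then heated in aliquots for 3 min over 48°C-58°C before pooling and addition of NP-40 to 0.5% at 4°C. Centrifugation at 21,000xg for 90 min left soluble protein in the supernatant, which TMTpro 16plex LC-MS/MS quantified with equalised channel sums. Results are log-two fold changes in thermal stability compared with solvent controls, from duplicates.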

[1] = compound: CCCS(=O)(=O)Nc1ccc(F)c(C(=O)c2c[nH]c3ncc(Cl)cc23)c1F
How it was run: as §1

barasertib = compound: CCN(CCCOc1ccc2c(Nc3cc(CC(=O)Nc4cccc(F)c4)[nH]n3)ncnc2c1)CCOP(=O)(O)O [barasertib]
How it was run: as §1

[2] = compound: CC[C@@H]1C(=O)N(C)c2cnc(Nc3ccc(C(=O)NC4CCN(C)CC4)cc3OC)nc2N1C1CCCC1
How it was run: as §1

volasertib = compound: CC[C@@H]1C(=O)N(C)c2cnc(Nc3ccc(C(=O)N[C@H]4CC[C@H](N5CCN(CC6CC6)CC5)CC4)cc3OC)nc2N1C(C)C [volasertib]
How it was run: as §1

[3] = compound: CCn1c(C(=O)N(C2CC2)C2CC2)cc2c3c(ncn3C)c(Nc3cc(C)n(C)n3)nc21
How it was run: as §1

[4] = compound: CCn1cc(-c2ccnc3[nH]c(-c4cccc(CN(C)C)c4)cc23)c(-c2ccc(NC(=O)N(C)C)cc2)n1
How it was run: as §1

[5] = compound: CN1CCC(CNc2ccc3ncc(-c4cccc(OC(F)(F)F)c4)n3n2)CC1
How it was run: as §1

saracatinib = compound: CN1CCN(CCOc2cc(OC3CCOCC3)c3c(Nc4c(Cl)ccc5c4OCO5)ncnc3c2)CC1 [saracatinib]
How it was run: as §1

sotrastaurin = compound: CN1CCN(c2nc(C3=C(c4c[nH]c5ccccc45)C(=O)NC3=O)c3ccccc3n2)CC1 [sotrastaurin]
How it was run: as §1

Row | Target | log2 fold change (vemurafenib) | log2 fold change [1] | log2 fold change (barasertib) | log2 fold change [2] | log2 fold change (volasertib) | log2 fold change [3] | log2 fold change [4] | log2 fold change [5] | log2 fold change (saracatinib) | log2 fold change (sotrastaurin)
1 | CSNK2A2 (UniProt P19784) | inactive: -0.219 | inactive: -0.005 | inactive: -0.044 | inactive: -0.031 | inactive: -0.082 | inactive: 0.011 | inactive: -0.092 | inactive: 0.418 | inactive: 0 | inactive: 0.023
2 | CTTN isoform 2 (UniProt Q14247) | inactive: -0.023 | inactive: -0.006 | inactive: -0.031 | inactive: 0.028 | inactive: 0.034 | inactive: -0.025 | inactive: 0.007 | inactive: 0.034 | inactive: -0.008 | inactive: -0.035
3 | CWC27 (UniProt Q6UX04) | inactive: -0.012 | inactive: -0.003 | inactive: -0.013 | inactive: 0.03 | inactive: 0 | inactive: -0.01 | inactive: 0.005 | inactive: -0.021 | inactive: 0.003 | inactive: -0.02
4 | CRELD1 isoform 2 (UniProt Q96HD1) | inactive: 0.194 | inactive: -0.028 | inactive: -0.087 | inactive: -0.13 | inactive: 0.051 | inactive: 0.002 | inactive: 0.05 | inactive: 0.033 | inactive: -0.157 | –
5 | CUEDC2 (UniProt Q9H467) | inactive: 0.06 | inactive: 0.001 | inactive: 0.026 | inactive: 0.038 | inactive: 0.027 | inactive: -0.084 | active: 0.694 | inactive: -0.07 | inactive: 0.002 | inactive: 0
6 | CSNK1A1 (UniProt P48729) | inactive: -0.044 | inactive: 0.017 | inactive: -0.003 | inactive: 0.078 | inactive: -0.066 | inactive: 0.097 | inactive: 0.065 | inactive: 0.171 | inactive: 0.02 | inactive: 0.048
7 | CTIF isoform 2 (UniProt O43310) | inactive: -0.056 | inactive: 0.027 | inactive: -0.066 | inactive: -0.048 | inactive: -0.007 | inactive: -0.005 | inactive: -0.157 | inactive: 0.042 | inactive: 0.067 | inactive: -0.011
8 | CRYZL1 (UniProt O95825) | inactive: -0.029 | inactive: 0.014 | inactive: -0.01 | inactive: 0.016 | inactive: 0.028 | inactive: -0.027 | inactive: -0.041 | inactive: 0.086 | inactive: -0.013 | inactive: 0.031
9 | CSRP1 (UniProt P21291) | inactive: -0.006 | inactive: -0.018 | inactive: -0.022 | inactive: 0.021 | inactive: 0.029 | inactive: -0.015 | inactive: -0.071 | inactive: 0.067 | inactive: 0.023 | inactive: -0.081
10 | CYB561 (UniProt P49447) | inactive: -0.009 | inactive: -0.004 | inactive: -0.068 | inactive: 0.083 | inactive: 0.067 | inactive: -0.197 | inactive: -0.361 | inactive: 0.121 | inactive: -0.035 | inactive: -0.045
11 | CXorf56 (UniProt Q9H5V9) | inactive: 0.006 | inactive: -0.004 | inactive: -0.04 | inactive: -0.008 | inactive: 0.009 | inactive: -0.033 | inactive: 0.031 | inactive: -0.013 | inactive: 0.008 | inactive: -0.008
12 | CTR9 (UniProt Q6PD62) | inactive: -0.008 | inactive: 0.002 | inactive: 0.017 | inactive: -0.015 | inactive: -0.037 | inactive: 0.021 | inactive: -0.024 | inactive: 0.003 | inactive: 0.021 | inactive: 0.001
13 | CTU1 (UniProt Q7Z7A3) | inactive: -0.01 | inactive: 0.003 | inactive: -0.03 | inactive: 0.037 | inactive: 0.012 | inactive: -0.067 | inactive: -0.026 | inactive: -0.005 | inactive: 0.017 | inactive: 0.01
14 | CSDE1 isoform 4 (UniProt O75534) | inactive: -0.002 | inactive: 0.004 | inactive: 0.01 | inactive: -0.083 | inactive: -0.041 | inactive: 0.028 | inactive: 0.069 | inactive: -0.066 | inactive: 0.003 | inactive: -0.018
15 | CYHR1 (UniProt E9PJD7) | inactive: -0.004 | inactive: 0.05 | inactive: 0.047 | inactive: 0.024 | inactive: -0.042 | inactive: 0.001 | inactive: -0.002 | inactive: 0.008 | inactive: -0.031 | inactive: 0.032
16 | CTIF (UniProt O43310) | inactive: -0.1 | – | – | – | – | – | – | – | – | –

Row | Target | log2 fold change (vemurafenib) | log2 fold change [1] | log2 fold change (barasertib) | log2 fold change [2] | log2 fold change (volasertib) | log2 fold change [3] | log2 fold change [4] | log2 fold change [5] | log2 fold change (saracatinib) | log2 fold change (sotrastaurin)
17 | CUL3 (UniProt Q13618) | inactive: 0.007 | inactive: 0.011 | inactive: 0.002 | inactive: -0.028 | inactive: -0.008 | inactive: 0.028 | inactive: 0 | inactive: -0.051 | inactive: 0.006 | inactive: -0.003
18 | CRYZ (UniProt Q08257) | inactive: 0.001 | inactive: -0.016 | inactive: -0.01 | inactive: 0.045 | inactive: 0.038 | inactive: -0.023 | inactive: -0.086 | inactive: 0.048 | inactive: -0.001 | inactive: -0.008
19 | CTNNB1 (UniProt P35222) | inactive: -0.253 | inactive: -0.048 | inactive: 0.054 | inactive: 0.142 | inactive: 0.016 | inactive: -0.016 | inactive: -0.009 | inactive: 0.093 | inactive: -0.026 | inactive: 0.017
20 | CSK (UniProt P41240) | inactive: 0.43 | inactive: 0.304 | inactive: 0.187 | inactive: -0.046 | inactive: -0.09 | inactive: -0.068 | inactive: 0.015 | inactive: 0.096 | inactive: 0.37 | inactive: -0.043
21 | CT55 (UniProt Q8WUE5) | inactive: -0.086 | inactive: -0.101 | inactive: 0.088 | inactive: -0.087 | inactive: 0.036 | inactive: 0.041 | inactive: -0.121 | inactive: -0.001 | inactive: -0.045 | inactive: 0.1
22 | CSNK1E (UniProt P49674) | inactive: -0.013 | inactive: -0.038 | inactive: 0.029 | inactive: 0.135 | inactive: -0.01 | inactive: 0.11 | inactive: -0.013 | inactive: 0.237 | inactive: 0.069 | inactive: 0.061
23 | CSTF2 (UniProt P33240) | inactive: 0.011 | inactive: -0.015 | active: 0.27 | inactive: 0.062 | inactive: -0.012 | inactive: -0.037 | inactive: -0.053 | inactive: 0.042 | inactive: 0.007 | inactive: 0.038
24 | CTNNA2 (UniProt P26232) | inactive: 0.044 | inactive: 0.028 | inactive: 0.035 | inactive: 0.025 | inactive: 0.006 | inactive: -0.015 | inactive: -0.106 | inactive: 0.066 | inactive: 0.028 | inactive: -0.093
25 | CREB3L2 (UniProt Q70SY1) | inactive: 0.081 | inactive: -0.05 | inactive: 0.065 | inactive: 0.068 | inactive: 0.014 | inactive: -0.094 | inactive: -0.224 | inactive: 0.182 | inactive: 0.057 | –
26 | CSTF1 (UniProt Q05048) | inactive: 0.006 | inactive: 0.005 | inactive: -0.021 | inactive: -0.037 | inactive: 0.029 | inactive: 0.043 | inactive: 0.003 | inactive: 0.095 | inactive: -0.015 | inactive: -0.057
27 | CRIPT (UniProt Q9P021) | inactive: -0.077 | inactive: -0.161 | inactive: -0.016 | inactive: 0.018 | inactive: 0.109 | inactive: -0.027 | inactive: -0.01 | inactive: -0.01 | inactive: 0.036 | inactive: -0.135
28 | CTSH (UniProt P09668) | inactive: 0.006 | inactive: 0.002 | inactive: 0.018 | inactive: 0.107 | inactive: 0.039 | inactive: 0.01 | inactive: 0.101 | inactive: 0.009 | inactive: -0.034 | inactive: 0.004
29 | CYFIP1 (UniProt Q7L576) | inactive: -0.002 | inactive: 0.011 | inactive: 0 | inactive: 0.015 | inactive: 0 | inactive: 0.035 | inactive: -0.102 | inactive: 0.015 | inactive: 0.002 | inactive: -0.013
30 | CRNN (UniProt Q9UBG3) | inactive: 0.939 | – | – | – | – | – | – | – | – | –
31 | CRTC2 (UniProt Q53ET0) | inactive: 0.077 | inactive: 0.064 | inactive: 0.09 | inactive: 0.065 | inactive: 0.064 | inactive: -0.018 | inactive: -0.012 | inactive: -0.042 | inactive: 0.067 | inactive: 0
32 | CYFIP2 (UniProt Q96F07) | inactive: -0.037 | inactive: 0.001 | inactive: -0.005 | inactive: 0.022 | inactive: -0.015 | inactive: -0.031 | inactive: -0.079 | inactive: -0.002 | inactive: 0.016 | inactive: 0.019

Records 29 to 30 of the list above:
Row | Target | log2 fold change (vemurafenib) | log2 fold change [1] | log2 fold change (barasertib) | log2 fold change [2] | log2 fold change (volasertib) | log2 fold change [3] | log2 fold change [4] | log2 fold change [5] | log2 fold change (saracatinib) | log2 fold change (sotrastaurin)
29 | CYFIP1 (UniProt Q7L576) | inactive: -0.002 | inactive: 0.011 | inactive: 0 | inactive: 0.015 | inactive: 0 | inactive: 0.035 | inactive: -0.102 | inactive: 0.015 | inactive: 0.002 | inactive: -0.013
30 | CRNN (UniProt Q9UBG3) | inactive: 0.939 | – | – | – | – | – | – | – | – | –
